Reference: article PMC10163288
The other results are listed elsewhere or left out.

B1: il10ra_site1_sap_17_mot_HHH_b2_04013_af2_000000040_0001_22_39_H_._HHH_b1_00889_0001_0000200037_0000001_0_0001 (protein)
chain: SSSSSDAAREIYELSRRALELMAEGDPEQARELLEEALELAEENNNQVFAHAIRLLLEELSSSSS
B2: il10ra_site1_sap_24_mot_HHH_b1_02492_000000051_0001_1_21_H_._HHH_b2_03638_0001_0001100097_0000001_0_0001 (protein)
chain: SSSSDEAVQEALRLVLEAFRLLLRGDEEEARKLLEEALRLAEEANDPRARMAIEDLLKILNSSSS
B3: il10ra_site1_normal_mot_HHH_b1_01082_af2_000000031_0001_3_19_H_._HHH_b1_06064_0001_0000200007_0000001_0 (protein)
chain: SSSSSYEEVKKLIERIVELLRRGDHEEAEKLIRELEELAEELNNPSLRFVVRLLEEVLERLSSSS
B4: il10ra_site1_normal_mot_HHH_b2_04131_000000071_0001_1_16_H_._HHH_b2_02423_af2_0001_0000200002_0000002_0 (protein)
chain: SSSSSSDEELQRLLHELLRLYLKGDPRVEEVAEELRELAEELNNEVARFIVEAVERRLSSSSSSS
B5: il10ra_site1_sap_19_mot_HHH_b1_08133_000000195_0001_1_19_H_._HHH_b2_01218_0001_0000400019_0000002_0_0001 (protein)
chain: SSSSDEEEEESEELLERLEELLRRGDQERFIKLAAEIVRFAYEVNDEELLRAVWRLVREFASSSS
B6: il10ra_site1_normal_mot_HHH_b2_02337_000000026_0001_38_52_H_._HHH_b2_08324_0001_0000500027_0000001_1 (protein)
chain: SSSSSDEEEEEVEELIEEAKRIPDPRESSRVLQRAVRIAIRANNEELLQEIWRLVQKLASSSSSS
B7: il10ra_site1_sap_23_mot_HHH_b1_06816_000000239_0001_1_19_H_._HHH_b1_00588_0001_0000100026_0000001_0_0001 (protein)
chain: SSSTEEFERVYRLLRKAVELDHEGDPEEAQRVLEEARELAEELGDMLLKEQIKFLEREIERSSSS
B8: il10ra_site1_normal_mot_HHH_b2_07488_000000216_0001_1_17_H_._HHH_b1_03361_0001_0000300038_0000001_0_af2pred_0001 (protein)
chain: SSSSSKLKELVELALRFIQRLIEEGDEEAAKFMLKAARELAEDLNDEELQEEIERLEEELNSSSS
B9: il10ra_site1_sap_12_mot_HHH_b1_06816_000000239_0001_1_19_H_._HHH_b2_06625_0001_0000400017_0000001_0_0001_af2pred_0001 (protein)
chain: SSSSSDAQREIQRLLRRAFELLEDGDPEEAEEVLREAEELAREANDELLERLVELLKRQINSSSS
B10: il10ra_site1_normal_mot_HHH_b2_04327_000000030_0001_41_55_H_._HHH_b2_04747_af2_0001_0000200010_0000002_0 (protein)
chain: SSSSSSDLEERLEELLEELEKAKTLEEIARIVIEAVRIATRLRDDELFEELWKLARKLFSSSSSS
B11: il10ra_site1_sap_23_mot_HHH_b2_01705_af2_000000069_0001_44_57_H_._HHH_b1_00774_0001_0000100006_0000002_0_0001_af2pred_0001 (protein)
chain: SSSSTAFERIVELAIAAAELLIKAGDPEKARRAIEIAERNVERLGNEELLRKLEEVEEELNSSSS
B12: il10ra_site1_sap_15_mot_HHH_b1_08125_af2_000000160_0001_1_19_H_._HHH_b1_04040_0001_0000100003_0000002_0_0001_af2pred_0001 (protein)
chain: SSSSSSQEETEARAILFFAKFSSNPDARRLALEMALEIARRLGDEELEEEIERLLEEINSSSSSS
B13: il10ra_site1_normal_mot_HHH_b1_04100_af2_000000180_0001_1_19_H_._HHH_b2_04370_0001_0000100007_0000002_0_af2pred_0001 (protein)
chain: SSSSDDAERSLRRLLEAIRYALEQGDEEIAKLALSSARHLAEYLGDEEALEELEEILKKLSSSSS
B14: il10ra_site1_sap_21_mot_HHH_b1_05522_af2_000000086_0001_1_15_H_._1fb36719620bfed6e915f7538ef129cd_0001_af2_0001_0000400011_0000001_0_0001 (protein)
chain: SSSSSSVEELAEEAEQLARERGDEEALELVEAIERLMKQGILDPEWAEMSLKALIRILQESSSSS
B15: il10ra_site1_sap_19_mot_HHH_b2_00856_af2_000000075_0001_1_20_H_._HHH_b2_05867_0001_0000200023_0000002_0_0001_af2pred_0001 (protein)
chain: SSSSSSTEEEIREIVRELAEEFGLDEEVIRAVIIAAKRNGASERQIELIIRFLAMARESSSSSSS
B16: il10ra_site1_sap_21_mot_ems_4hM_4976_0002_af2_000000176_0001_48_63_H_._d30c92881be5d2f229e465dffc40e224_0001_af2_0001_0001100022_0000001_0_0001 (protein)
chain: SSSSDLEEEVEELLEELKQAKSREEFARLALEVLRVAIQSNDPELLEEVWEVIKRVAERLSSSSS
B17: il10ra_site1_normal_mot_HHH_b1_05021_af2_000000167_0001_42_56_H_._HHH_b1_07521_af2_0001_0000100005_0000001_0_af2pred_0001 (protein)
chain: SSSSSEEARRIIELIRKAIKLEVEENNPEEAEEVLREAEELARENGDELLLFLVERLLELLSSSS
B18: il10ra_site1_normal_mot_HHH_b2_03220_af2_000000223_0001_23_40_H_._HHH_b2_06254_0001_0000100011_0000001_0 (protein)
chain: SSSSSNEEVWELIREALELLANGNPEEAREVLEEARELAEELNNFAARFAIRQLERAVESSSSSS
B19: il10ra_site1_normal_mot_HHH_b2_07569_000000265_0001_38_56_H_._HHH_b1_08651_af2_0001_0000100005_0000002_0 (protein)
chain: SSSSSSDAAELAAEALRLAFRLGDEEAVQEIWELFRRYFEEGDPRYEEALEELIEELRSSSSSSS
B20: il10ra_site1_sap_27_mot_HHH_b2_02053_af2_000000006_0001_3_19_H_._HHH_b1_05377_0001_0000200016_0000001_0_0001 (protein)
chain: SSSSSSDEEEELKELLEELQKSPDPEERLELALRIIELAFQVGDEEVLRELWRLVKELSSSSSSS
B21: il10ra_site1_sap_17_mot_HHH_b2_00479_000000091_0001_1_12_H_._HHH_b2_00819_0001_0000100002_0000001_0_0001 (protein)
chain: SSSSSDENRQLYRLSREALELLRRGNPEEAEKILEEAIELAEEAGNRLMLHNLRFILKDVRSSSS
B22: il10ra_site1_sap_20_mot_HHH_b2_02463_af2_000000222_0001_1_19_H_._HHH_b1_01108_0001_0000200012_0000001_0_0001_af2pred_0001 (protein)
chain: SSSSSSEEIAELIREALELDRKGNPEEAQKLLEEAEKLAEEANNLVLRIAVEKALKNLEGSSSSS
B23: il10ra_site1_normal_mot_8756ee2cf497b5429c717dfc0c0bcfd6_0001_000000186_0001_1_13_H_._HHH_b2_04770_af2_0001_0000500021_0000001_0 (protein)
chain: SSSSSTHEVLERVIELIRRAAQITDEEELKEVLEEAQELAEELGNDVLRVQVEYLLRSLTSSSSS
B24: il10ra_site1_normal_mot_HHH_b1_06994_000000193_0001_40_55_H_._HHH_b2_01485_0001_0000100004_0000001_0 (protein)
chain: SSSSDEEELLEAVERLIEQAIKNGDPRAARFLVIALKILARDNNDPEAEEEAERLEELVEKSSSS

Target: il10ra, Q13651
Assay: yeast display titration

Apparent Kd, inactive:
B1 no binding seen
B2 no binding seen
B3 no binding seen
B4 no binding seen
B5 no binding seen
B6 no binding seen
B7 no binding seen
B8 no binding seen
B9 no binding seen
B10 no binding seen
B11 no binding seen
B12 > 276 nM
B13 no binding seen
B14 no binding seen
B15 no binding seen
B16 no binding seen
B17 no binding seen
B18 no binding seen
B19 no binding seen
B20 no binding seen
B21 no binding seen
B22 no binding seen
B23 no binding seen
B24 no binding seen

A run of entries from the list above:
Apparent Kd, inactive:
B5 no binding seen
B6 no binding seen
